# Reference: the supplement of paper PMC10849652
# By UniProt entry, the sequences of proteins in these tests, tags left out. Where a name states a change or a piece, a line headed by the entry shows the natural chain unless it says otherwise.
# UniProt P51570: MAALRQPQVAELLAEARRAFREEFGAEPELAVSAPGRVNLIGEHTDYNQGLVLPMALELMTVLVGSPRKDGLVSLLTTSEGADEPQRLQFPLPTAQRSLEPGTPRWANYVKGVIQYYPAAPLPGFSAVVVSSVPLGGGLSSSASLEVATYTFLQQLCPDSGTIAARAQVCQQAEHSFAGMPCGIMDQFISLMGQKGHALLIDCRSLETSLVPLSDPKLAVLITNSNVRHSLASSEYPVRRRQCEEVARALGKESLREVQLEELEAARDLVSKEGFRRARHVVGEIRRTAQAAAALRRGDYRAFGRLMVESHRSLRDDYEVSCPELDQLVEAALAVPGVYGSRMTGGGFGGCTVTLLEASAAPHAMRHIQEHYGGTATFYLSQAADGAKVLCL
# UniProt Q8NCW6: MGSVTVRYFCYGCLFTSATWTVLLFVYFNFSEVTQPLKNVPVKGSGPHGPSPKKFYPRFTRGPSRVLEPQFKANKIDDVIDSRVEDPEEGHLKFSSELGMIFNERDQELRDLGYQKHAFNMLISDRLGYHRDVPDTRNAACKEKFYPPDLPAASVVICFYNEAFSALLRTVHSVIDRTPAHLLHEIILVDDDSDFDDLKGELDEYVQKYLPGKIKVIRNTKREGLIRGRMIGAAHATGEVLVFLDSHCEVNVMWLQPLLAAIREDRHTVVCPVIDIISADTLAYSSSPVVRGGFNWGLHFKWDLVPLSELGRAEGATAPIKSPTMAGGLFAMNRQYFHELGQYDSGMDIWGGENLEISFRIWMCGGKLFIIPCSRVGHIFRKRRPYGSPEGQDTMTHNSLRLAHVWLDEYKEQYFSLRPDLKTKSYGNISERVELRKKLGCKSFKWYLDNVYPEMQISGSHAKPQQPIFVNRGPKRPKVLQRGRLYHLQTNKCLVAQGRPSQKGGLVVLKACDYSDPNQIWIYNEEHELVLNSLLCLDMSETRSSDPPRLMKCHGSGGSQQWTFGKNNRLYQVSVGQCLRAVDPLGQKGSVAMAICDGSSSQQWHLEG
# UniProt Q9UJ14: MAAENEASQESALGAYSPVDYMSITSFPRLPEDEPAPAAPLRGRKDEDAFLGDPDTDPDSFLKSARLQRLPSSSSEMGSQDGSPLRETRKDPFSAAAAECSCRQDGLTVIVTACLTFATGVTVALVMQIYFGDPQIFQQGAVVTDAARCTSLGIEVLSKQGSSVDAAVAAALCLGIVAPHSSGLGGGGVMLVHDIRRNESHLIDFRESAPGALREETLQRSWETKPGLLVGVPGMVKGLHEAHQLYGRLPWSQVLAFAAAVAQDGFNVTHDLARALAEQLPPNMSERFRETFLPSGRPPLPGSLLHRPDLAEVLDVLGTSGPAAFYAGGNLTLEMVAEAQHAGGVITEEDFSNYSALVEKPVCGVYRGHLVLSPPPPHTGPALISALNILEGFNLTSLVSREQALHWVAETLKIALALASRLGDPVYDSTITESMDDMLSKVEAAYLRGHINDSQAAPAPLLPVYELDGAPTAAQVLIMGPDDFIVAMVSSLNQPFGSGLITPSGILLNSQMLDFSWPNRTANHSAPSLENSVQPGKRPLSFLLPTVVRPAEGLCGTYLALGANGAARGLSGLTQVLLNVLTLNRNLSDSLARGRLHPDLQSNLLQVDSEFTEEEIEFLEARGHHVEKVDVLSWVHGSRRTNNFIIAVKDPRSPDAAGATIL
# UniProt Q8TEQ6: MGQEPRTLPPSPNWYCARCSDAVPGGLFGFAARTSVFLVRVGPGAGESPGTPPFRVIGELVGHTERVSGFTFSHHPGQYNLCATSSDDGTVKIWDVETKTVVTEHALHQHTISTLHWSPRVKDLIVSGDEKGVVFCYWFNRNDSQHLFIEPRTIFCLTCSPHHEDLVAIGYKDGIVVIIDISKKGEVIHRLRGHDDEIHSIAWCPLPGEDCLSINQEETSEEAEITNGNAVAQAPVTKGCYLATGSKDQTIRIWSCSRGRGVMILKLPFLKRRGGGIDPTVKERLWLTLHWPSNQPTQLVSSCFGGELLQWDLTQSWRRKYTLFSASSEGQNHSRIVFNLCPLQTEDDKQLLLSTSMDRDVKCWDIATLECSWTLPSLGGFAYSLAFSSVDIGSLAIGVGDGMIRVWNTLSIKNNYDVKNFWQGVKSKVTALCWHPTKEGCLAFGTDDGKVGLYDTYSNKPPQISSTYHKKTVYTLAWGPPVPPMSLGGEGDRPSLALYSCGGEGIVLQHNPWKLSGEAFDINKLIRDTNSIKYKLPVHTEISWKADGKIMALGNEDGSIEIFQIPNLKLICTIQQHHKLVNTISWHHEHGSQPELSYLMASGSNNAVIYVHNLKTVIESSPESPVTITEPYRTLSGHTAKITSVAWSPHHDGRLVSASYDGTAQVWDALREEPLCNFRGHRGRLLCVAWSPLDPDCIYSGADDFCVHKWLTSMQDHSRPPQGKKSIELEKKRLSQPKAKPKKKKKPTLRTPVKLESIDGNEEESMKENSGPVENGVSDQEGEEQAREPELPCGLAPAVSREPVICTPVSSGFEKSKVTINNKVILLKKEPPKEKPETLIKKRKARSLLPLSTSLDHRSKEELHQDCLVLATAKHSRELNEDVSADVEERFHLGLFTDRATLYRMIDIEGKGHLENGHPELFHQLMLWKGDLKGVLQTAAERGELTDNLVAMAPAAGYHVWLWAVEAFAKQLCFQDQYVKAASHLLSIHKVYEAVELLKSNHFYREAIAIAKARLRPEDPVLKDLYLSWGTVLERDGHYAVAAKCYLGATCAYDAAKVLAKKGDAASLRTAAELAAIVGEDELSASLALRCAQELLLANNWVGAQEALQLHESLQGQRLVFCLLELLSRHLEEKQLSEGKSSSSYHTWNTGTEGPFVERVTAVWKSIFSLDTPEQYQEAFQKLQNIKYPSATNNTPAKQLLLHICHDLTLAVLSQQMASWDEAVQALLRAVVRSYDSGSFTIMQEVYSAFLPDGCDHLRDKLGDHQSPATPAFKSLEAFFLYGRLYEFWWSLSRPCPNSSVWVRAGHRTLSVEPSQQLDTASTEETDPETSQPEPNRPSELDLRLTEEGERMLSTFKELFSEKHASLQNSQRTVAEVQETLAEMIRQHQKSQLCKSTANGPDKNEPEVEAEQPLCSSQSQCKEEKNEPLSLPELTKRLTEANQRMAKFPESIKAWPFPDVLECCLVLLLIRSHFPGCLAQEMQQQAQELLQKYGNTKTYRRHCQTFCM
# UniProt Q96I24: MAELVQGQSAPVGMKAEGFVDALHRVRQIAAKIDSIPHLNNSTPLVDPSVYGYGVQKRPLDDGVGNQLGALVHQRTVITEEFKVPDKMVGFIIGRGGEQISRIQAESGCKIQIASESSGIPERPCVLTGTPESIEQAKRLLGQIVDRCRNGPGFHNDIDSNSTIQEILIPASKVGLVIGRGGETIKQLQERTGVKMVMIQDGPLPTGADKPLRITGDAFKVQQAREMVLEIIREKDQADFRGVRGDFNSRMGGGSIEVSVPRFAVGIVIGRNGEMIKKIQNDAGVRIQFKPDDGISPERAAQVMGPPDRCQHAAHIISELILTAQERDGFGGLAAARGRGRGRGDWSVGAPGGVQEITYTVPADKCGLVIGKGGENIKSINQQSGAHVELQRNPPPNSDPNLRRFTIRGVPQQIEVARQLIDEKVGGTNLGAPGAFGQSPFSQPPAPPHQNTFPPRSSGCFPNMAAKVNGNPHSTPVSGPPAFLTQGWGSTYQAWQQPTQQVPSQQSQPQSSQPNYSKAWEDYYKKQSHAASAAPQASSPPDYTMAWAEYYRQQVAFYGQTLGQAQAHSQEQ
# UniProt P0CL80: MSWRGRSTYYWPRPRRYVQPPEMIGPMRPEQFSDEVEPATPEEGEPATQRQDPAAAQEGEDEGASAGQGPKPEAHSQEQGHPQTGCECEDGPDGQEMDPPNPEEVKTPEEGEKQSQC
# UniProt Q8WXD5: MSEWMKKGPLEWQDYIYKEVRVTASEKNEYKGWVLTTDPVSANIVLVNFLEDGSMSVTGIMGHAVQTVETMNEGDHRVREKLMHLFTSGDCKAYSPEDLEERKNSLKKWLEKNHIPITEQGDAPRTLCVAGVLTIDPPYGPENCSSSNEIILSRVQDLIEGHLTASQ
# UniProt Q9H0R8, whole entry, looked up: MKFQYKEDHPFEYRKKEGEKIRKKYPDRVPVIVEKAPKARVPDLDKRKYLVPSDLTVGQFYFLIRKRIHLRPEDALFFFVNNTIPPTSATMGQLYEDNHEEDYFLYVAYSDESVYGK
# UniProt Q14C86: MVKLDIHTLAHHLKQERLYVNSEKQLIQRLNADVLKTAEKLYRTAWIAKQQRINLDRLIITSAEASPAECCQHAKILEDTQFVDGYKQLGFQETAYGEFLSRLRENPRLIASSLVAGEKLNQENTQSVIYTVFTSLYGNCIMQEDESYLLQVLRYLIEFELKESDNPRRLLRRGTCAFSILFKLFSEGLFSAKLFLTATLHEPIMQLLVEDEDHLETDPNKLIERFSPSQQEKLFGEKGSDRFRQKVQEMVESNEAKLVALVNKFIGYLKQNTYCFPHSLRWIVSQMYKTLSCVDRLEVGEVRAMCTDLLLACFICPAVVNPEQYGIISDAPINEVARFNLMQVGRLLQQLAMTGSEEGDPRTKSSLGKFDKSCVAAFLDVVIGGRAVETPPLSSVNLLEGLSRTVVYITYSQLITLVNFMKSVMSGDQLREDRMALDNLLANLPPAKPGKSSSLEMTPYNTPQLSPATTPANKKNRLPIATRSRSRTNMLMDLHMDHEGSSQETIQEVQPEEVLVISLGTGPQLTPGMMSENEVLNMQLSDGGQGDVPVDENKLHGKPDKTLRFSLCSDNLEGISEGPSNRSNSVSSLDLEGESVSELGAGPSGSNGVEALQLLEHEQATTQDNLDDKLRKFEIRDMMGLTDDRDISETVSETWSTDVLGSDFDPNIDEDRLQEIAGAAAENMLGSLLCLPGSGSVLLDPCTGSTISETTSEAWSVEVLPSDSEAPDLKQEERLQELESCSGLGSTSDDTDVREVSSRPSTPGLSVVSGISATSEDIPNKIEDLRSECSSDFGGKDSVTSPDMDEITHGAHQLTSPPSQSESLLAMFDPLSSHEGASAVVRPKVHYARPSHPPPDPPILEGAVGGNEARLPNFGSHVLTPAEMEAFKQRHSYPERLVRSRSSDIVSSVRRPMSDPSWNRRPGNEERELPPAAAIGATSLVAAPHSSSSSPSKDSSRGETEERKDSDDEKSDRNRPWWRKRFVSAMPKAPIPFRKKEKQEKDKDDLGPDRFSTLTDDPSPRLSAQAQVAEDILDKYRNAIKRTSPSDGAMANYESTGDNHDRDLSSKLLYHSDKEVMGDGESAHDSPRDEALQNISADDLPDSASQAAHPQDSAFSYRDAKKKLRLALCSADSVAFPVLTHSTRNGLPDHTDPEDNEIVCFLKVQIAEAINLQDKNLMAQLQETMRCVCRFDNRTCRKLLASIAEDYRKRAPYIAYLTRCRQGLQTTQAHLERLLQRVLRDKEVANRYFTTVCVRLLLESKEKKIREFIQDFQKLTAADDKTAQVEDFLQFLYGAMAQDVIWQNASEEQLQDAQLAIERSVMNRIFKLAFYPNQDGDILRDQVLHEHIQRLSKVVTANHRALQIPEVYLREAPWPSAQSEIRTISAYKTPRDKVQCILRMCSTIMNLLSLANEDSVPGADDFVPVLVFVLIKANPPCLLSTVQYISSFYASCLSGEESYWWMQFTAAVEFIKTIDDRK
# UniProt P23434: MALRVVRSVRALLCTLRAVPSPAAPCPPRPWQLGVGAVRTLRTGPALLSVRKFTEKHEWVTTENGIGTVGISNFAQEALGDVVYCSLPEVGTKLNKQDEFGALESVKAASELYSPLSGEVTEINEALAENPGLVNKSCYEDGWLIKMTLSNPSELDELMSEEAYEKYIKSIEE
# UniProt Q8N9F7: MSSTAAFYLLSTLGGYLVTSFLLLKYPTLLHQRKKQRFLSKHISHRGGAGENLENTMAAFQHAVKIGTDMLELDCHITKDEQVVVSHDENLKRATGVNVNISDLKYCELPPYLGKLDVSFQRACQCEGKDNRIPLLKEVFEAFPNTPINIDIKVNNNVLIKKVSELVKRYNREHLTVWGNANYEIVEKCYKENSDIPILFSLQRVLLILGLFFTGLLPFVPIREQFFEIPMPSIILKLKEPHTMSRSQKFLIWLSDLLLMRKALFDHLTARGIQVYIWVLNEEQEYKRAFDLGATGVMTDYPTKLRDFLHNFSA
# The other results are listed elsewhere or left out.
# Columns and labels:
# Test in all cases: log2 fold change, soluble protein after heating vs DMSO (PISA); higher = thermal stabilisation; K562 cells, 10 uM, 30 min; active = over 0.2 and 3.5 SD of the protein, either way, in both replicates (recomputed)
# [1] = compound: CC[C@@H]1C(=O)N(C)c2cnc(Nc3ccc(C(=O)NC4CCN(C)CC4)cc3OC)nc2N1C1CCCC1
# In short: (§1)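 Soluble protein was quantified by TMTpro 16plex LC-MS/MS after channel sums were equalised. It was obtained as the supernatant after 21,000xg for 90 min from pooled aliquots of K562 cells (2×10^6 cells/mL, 10 μM compound, 30 min) heated for 3 min across 48°C-58°C and extracted in PBS with 0.5% NP-40 at 4°C. Thermal stability values are relative to control samples and come from duplicates. They are given as log2 fold changes.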
# volasertib = compound: CC[C@@H]1C(=O)N(C)c2cnc(Nc3ccc(C(=O)N[C@H]4CC[C@H](N5CCN(CC6CC6)CC5)CC4)cc3OC)nc2N1C(C)C [volasertib]
# In short: as §1
# [2] = compound: CC[C@H](C)N1C=C(C2=C(C=C(C=C21)C3=CN=C(C=C3)N4CCNCC4)C(=O)NCC5=C(C=C(NC5=O)C)C)C
# In short: as §1
# epoxomicin = compound: CC[C@H](C)[C@@H](C(=O)N[C@@H]([C@@H](C)O)C(=O)N[C@@H](CC(C)C)C(=O)[C@]1(CO1)C)NC(=O)[C@H]([C@@H](C)CC)N(C)C(=O)C [epoxomicin]
# In short: as §1
# [3] = compound: CCn1c(C(=O)N(C2CC2)C2CC2)cc2c3c(ncn3C)c(Nc3cc(C)n(C)n3)nc21
# In short: as §1
# [4] = compound: CCn1cc(-c2ccnc3[nH]c(-c4cccc(CN(C)C)c4)cc23)c(-c2ccc(NC(=O)N(C)C)cc2)n1
# In short: as §1
# [5] = compound: CN(C)CC(=O)Nc1ccc2[nH]c(=O)c3ccccc3c2c1
# In short: as §1
# rosiglitazone = compound: CN(CCOC1=CC=C(C=C1)C[C@H]2C(=O)NC(=O)S2)C3=CC=CC=N3 (racemic) [rosiglitazone]
# In short: as §1
# [6] = compound: CN1C2=C(C3=C1C(=O)N(N=C3)CC4=CC(=CC=C4)N)SC(=C2)S(=O)C
# In short: as §1
# [7] = compound: CN1CCC(CNc2ccc3ncc(-c4cccc(OC(F)(F)F)c4)n3n2)CC1
# In short: as §1
# saracatinib = compound: CN1CCN(CCOc2cc(OC3CCOCC3)c3c(Nc4c(Cl)ccc5c4OCO5)ncnc3c2)CC1 [saracatinib]
# In short: as §1
# sotrastaurin = compound: CN1CCN(c2nc(C3=C(c4c[nH]c5ccccc45)C(=O)NC3=O)c3ccccc3n2)CC1 [sotrastaurin]
# In short: as §1
# alvocidib = compound: CN1CC[C@H](c2c(O)cc(O)c3c(=O)cc(-c4ccccc4Cl)oc23)[C@H](O)C1 [alvocidib]
# In short: as §1
# Tubastatin A = compound: CN1CCc2c(c3ccccc3n2Cc2ccc(C(=O)NO)cc2)C1 [Tubastatin A]
# In short: as §1
# [8] = compound: CNC(=O)C1=CC=CC=C1NC2=NC(=NC=C2Cl)NC3=C(C=C(C=C3)N4CCOCC4)OC
# In short: as §1
# defactinib = compound: CNC(=O)c1ccc(Nc2ncc(C(F)(F)F)c(NCc3nccnc3N(C)S(C)(=O)=O)n2)cc1 [defactinib]
# In short: as §1
# rucaparib = compound: CNCc1ccc(-c2[nH]c3cc(F)cc4c3c2CCNC4=O)cc1 [rucaparib]
# In short: as §1
# [9] = compound: CNc1nc(-c2ccc3c(N)n[nH]c3c2)cc(N2C[C@@H](C(=O)NC3CCCCC3)CC[C@H]2C)n1
# In short: as §1
# encorafenib = compound: COC(=O)N[C@@H](C)CNc1nccc(-c2cn(C(C)C)nc2-c2cc(Cl)cc(NS(C)(=O)=O)c2F)n1 [encorafenib]
# In short: as §1
# [10] = compound: COC(=O)[C@H](CCSC)NC(=O)C1=C(C=C(C=C1)NC[C@H](CS)N)C2=CC=CC=C2
# In short: as §1
Target,log2 fold change [1],log2 fold change (volasertib),log2 fold change [2],log2 fold change (epoxomicin),log2 fold change [3],log2 fold change [4],log2 fold change [5],log2 fold change (rosiglitazone),log2 fold change [6],log2 fold change [7],log2 fold change (saracatinib),log2 fold change (sotrastaurin),log2 fold change (alvocidib),log2 fold change (Tubastatin A),log2 fold change [8],log2 fold change (defactinib),log2 fold change (rucaparib),log2 fold change [9],log2 fold change (encorafenib),log2 fold change [10]
FRYL (UniProt O94915),inactive: -0.012,inactive: -0.179,inactive: 0.041,inactive: -0.038,inactive: -0.017,inactive: 0,inactive: -0.006,inactive: 0,inactive: 0.046,inactive: 0.004,inactive: -0.011,inactive: -0.04,inactive: -0.019,inactive: 0.049,inactive: -0.005,inactive: -0.001,inactive: 0.018,inactive: -0.005,inactive: 0.083,inactive: 0.003
GATAD2A isoform 3 (UniProt Q86YP4),inactive: -0.071,inactive: -0.144,inactive: 0.059,inactive: 0.094,inactive: 0.011,inactive: 0.014,inactive: 0.104,inactive: 0.017,inactive: 0.081,inactive: -0.037,inactive: -0.045,inactive: -0.162,inactive: -0.221,inactive: 0.001,inactive: -0.035,inactive: -0.227,inactive: 0.117,inactive: 0.006,inactive: 0.179,inactive: -0.033
GARS1 (UniProt H7C443),inactive: 0.16,inactive: 0,inactive: -0.123,inactive: -0.155,inactive: 0.008,inactive: 0.38,inactive: -0.126,,,inactive: -0.119,,inactive: 0.137,inactive: 0.082,inactive: 0.059,inactive: -0.07,inactive: 0.03,inactive: 0.004,,inactive: -0.139,inactive: 0.076
GALK1 isoform 2 (UniProt P51570),inactive: -0.03,inactive: -0.009,inactive: 0.053,inactive: 0.131,,inactive: -0.064,inactive: 0.106,,inactive: -0.049,inactive: -0.03,inactive: 0.117,inactive: -0.096,,inactive: -0.011,inactive: -0.049,inactive: -0.032,inactive: -0.014,inactive: 0.055,inactive: 0.007,inactive: -0.006
GALNT11 (UniProt Q8NCW6),inactive: 0.057,active: -0.223,inactive: 0.014,inactive: -0.002,,inactive: 0.015,inactive: -0.079,,inactive: 0.013,inactive: -0.009,inactive: -0.025,inactive: -0.024,,inactive: 0.028,inactive: 0.033,inactive: -0.187,inactive: -0.047,inactive: 0.01,inactive: -0.064,inactive: -0.055
GGT7 (UniProt Q9UJ14),inactive: 0.029,inactive: -0.063,inactive: -0.069,inactive: 0.079,,inactive: -0.124,inactive: 0.081,,inactive: 0.02,inactive: 0.023,inactive: 0.066,inactive: 0.051,,inactive: 0.053,inactive: -0.042,inactive: -0.027,inactive: -0.038,inactive: -0.091,inactive: 0,inactive: -0.011
GEMIN5 (UniProt Q8TEQ6),inactive: -0.122,active: -0.438,inactive: 0.034,inactive: -0.014,,inactive: 0.042,inactive: 0.015,,inactive: 0.019,inactive: -0.094,inactive: -0.014,inactive: -0.035,,inactive: -0.053,inactive: -0.02,active: -0.216,inactive: 0.026,inactive: 0.025,inactive: 0.061,inactive: -0.019
FUBP3 (UniProt Q96I24),inactive: 0.061,active: -0.251,inactive: 0.045,inactive: 0.021,,inactive: 0.064,inactive: -0.028,,inactive: 0.02,inactive: 0.059,inactive: 0.012,inactive: 0.05,,inactive: -0.092,inactive: -0.039,inactive: 0.184,inactive: 0.167,inactive: -0.049,inactive: -0.003,inactive: -0.032
GAGE12F (UniProt P0CL80),inactive: 0.037,inactive: 0.069,inactive: -0.033,inactive: 0.034,,inactive: -0.058,inactive: -0.095,,inactive: -0.049,inactive: -0.234,inactive: 0.007,inactive: 0.053,,inactive: 0.009,inactive: -0.081,inactive: 0.095,inactive: 0.033,inactive: -0.051,inactive: -0.031,inactive: -0.02
GEMIN6 (UniProt Q8WXD5),inactive: 0.109,inactive: 0.148,inactive: -0.052,inactive: 0.093,,inactive: -0.019,inactive: -0.039,,inactive: -0.087,inactive: -0.048,inactive: 0.063,inactive: 0.002,,inactive: 0.072,inactive: 0.013,inactive: -0.061,inactive: 0.069,inactive: -0.028,inactive: -0.04,inactive: -0.112
GALNT4 (UniProt Q8N4A0),inactive: -0.062,active: -0.334,inactive: -0.032,inactive: -0.041,,inactive: -0.031,inactive: 0.007,,inactive: -0.007,active: -0.367,inactive: -0.088,inactive: -0.029,,inactive: 0.046,inactive: -0.063,inactive: 0.016,inactive: -0.079,inactive: -0.138,inactive: 0.04,inactive: -0.013
GABARAPL1 isoform 2 (UniProt Q9H0R8),active: -0.303,inactive: -0.186,inactive: 0.035,inactive: -0.029,,inactive: 0.007,inactive: 0.034,,inactive: -0.135,inactive: -0.187,inactive: -0.057,inactive: 0,,inactive: 0.08,inactive: 0.023,inactive: -0.011,inactive: -0.079,inactive: -0.006,inactive: -0.004,inactive: -0.058
FNTB (UniProt P49356),active: 0.948,active: 0.707,inactive: 0.01,inactive: 0.044,,inactive: -0.212,inactive: 0.02,,inactive: -0.055,inactive: -0.088,inactive: 0.046,inactive: 0.346,,inactive: 0.017,inactive: -0.036,inactive: 0.095,inactive: 0.02,inactive: -0.007,inactive: -0.016,active: 0.974
FRA10AC1 isoform 3 (UniProt Q70Z53),inactive: -0.086,active: -0.613,inactive: -0.034,inactive: 0.041,,inactive: 0.025,inactive: -0.013,,inactive: 0.093,inactive: 0.057,inactive: 0.125,inactive: 0.133,,inactive: -0.023,inactive: -0.01,inactive: 0,inactive: -0.035,inactive: -0.196,inactive: -0.103,inactive: -0.067
GAPVD1 isoform 6 (UniProt Q14C86),inactive: -0.12,active: -0.585,inactive: 0.034,inactive: -0.015,,inactive: -0.016,inactive: 0.038,,inactive: 0.083,inactive: -0.197,inactive: -0.04,inactive: -0.158,,inactive: -0.009,inactive: -0.007,inactive: -0.07,inactive: 0.103,inactive: 0.032,inactive: 0.125,inactive: -0.043
GCSH (UniProt P23434),inactive: 0.055,inactive: 0.065,inactive: -0.078,inactive: 0.005,,inactive: 0.023,inactive: 0.028,,inactive: 0.012,active: -0.338,inactive: -0.024,inactive: 0.057,,inactive: -0.017,inactive: 0.021,inactive: -0.01,inactive: -0.012,inactive: -0.004,inactive: -0.028,inactive: -0.008
GDPD1 (UniProt Q8N9F7),inactive: 0.069,inactive: 0.049,inactive: -0.019,inactive: 0.017,,inactive: -0.188,inactive: 0.004,,inactive: -0.132,inactive: 0.092,active: 0.505,inactive: 0.21,,inactive: 0.019,inactive: -0.017,inactive: -0.087,inactive: -0.07,inactive: 0.042,inactive: -0.051,inactive: -0.041
GABPA (UniProt Q06546),inactive: -0.017,active: -0.304,inactive: 0.079,inactive: 0.007,,inactive: -0.07,inactive: 0.037,,inactive: -0.026,inactive: -0.174,inactive: -0.065,inactive: -0.086,,inactive: 0.087,inactive: -0.063,inactive: -0.064,inactive: -0.015,inactive: 0.018,inactive: 0.019,inactive: 0.011

# 2 entries picked at random from those above:
Target,log2 fold change [1],log2 fold change (volasertib),log2 fold change [2],log2 fold change (epoxomicin),log2 fold change [3],log2 fold change [4],log2 fold change [5],log2 fold change (rosiglitazone),log2 fold change [6],log2 fold change [7],log2 fold change (saracatinib),log2 fold change (sotrastaurin),log2 fold change (alvocidib),log2 fold change (Tubastatin A),log2 fold change [8],log2 fold change (defactinib),log2 fold change (rucaparib),log2 fold change [9],log2 fold change (encorafenib),log2 fold change [10]
GALNT4 (UniProt Q8N4A0),inactive: -0.062,active: -0.334,inactive: -0.032,inactive: -0.041,,inactive: -0.031,inactive: 0.007,,inactive: -0.007,active: -0.367,inactive: -0.088,inactive: -0.029,,inactive: 0.046,inactive: -0.063,inactive: 0.016,inactive: -0.079,inactive: -0.138,inactive: 0.04,inactive: -0.013
GALNT11 (UniProt Q8NCW6),inactive: 0.057,active: -0.223,inactive: 0.014,inactive: -0.002,,inactive: 0.015,inactive: -0.079,,inactive: 0.013,inactive: -0.009,inactive: -0.025,inactive: -0.024,,inactive: 0.028,inactive: 0.033,inactive: -0.187,inactive: -0.047,inactive: 0.01,inactive: -0.064,inactive: -0.055
